Test results published in PubChem BioAssay AID1347075 (National Center for Advancing Translational Sciences (NCATS), 2019).
Out of some 400,000 compounds screened, about 5,500 (1.4%) were called active. Inconclusive means that the source gave no clear call. Such entries were picked first, then a sample of the others. Calls come from the whole dose curve; as a rule, active = well fitted cell-killing curve with a large enough effect; inconclusive = small, poorly fitted or top-dose-only effect, or effect the other way; inactive = flat fitted curve, though single readings scatter. A potency beside an inconclusive call is a rough fit, not a confirmed value.

Assay: qHTS assay for MDR1-selective chemotherapeutics: Primary screen using the parental adenocarcinoma cell KB-3-1; note: nearly all actives have a fitted effect of over 60% in size
Conditions: KB-3-1 viability, CellTiter-Glo ATP luminescence, 72 h; activity change, negative = cytotoxic: at 46.1 µM (top of the series)
In short: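 Cells are dispensed, compounds pinned in, plates held at 37 °C for 72 h, then CellTiter-Glo is added and luminescence read after 10 minutes. Cell line: parental KB-3-1 in phenol-red-free DMEM, 10% FBS.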
% is set by controls: 0 for no effect and ±100 for the full control effect; potency is the fitted concentration of half-maximal effect.

SMILES | Potency | activity change, negative = cytotoxic
COc1cccc(C(=O)/C=C/Nc2ccc(S(=O)(=O)Nc3cccc(C(C)=O)c3)cc2)c1 | inactive | –
S=c1[nH]nc(COc2ccccc2)n1/N=C/c1c(Cl)cccc1Cl | inconclusive: 32.6 µM [rising, partial curve, poor fit] | –
Cc1cccc(C(CC(=O)NCCc2ccccc2)c2ccccc2)c1O (configuration not stated) | inconclusive: 20.6 µM [cytotoxic, single point] | –
O=C(Nc1ccc2nc(-c3ccccc3)[nH]c2c1)c1ccco1 | inconclusive: 7.31 µM [rising, partial curve, poor fit] | –
O=C1NCC(Nc2ccc(Br)cc2)C(=O)N1 (configuration not stated) | inactive | –
CCCOc1ccc(CNC(=O)c2ccc3c(c2)N(CC)CCS3)cc1 | inactive | –
CC(=O)Nc1ccc(-c2csc(NNC(=O)c3ccc(C)cc3)n2)cc1 | inactive | –
CC(C)C1C(=O)N(Cc2cn(CC3CCCCC3)nn2)CCS(=O)(=O)N1Cc1ccc(-c2ccc(F)nc2)cc1 (configuration not stated) | active: 16.4 µM | –
Cc1cccc(-n2ncc3c2CCCC3NC(=O)CCN2CCCO2)c1C (configuration not stated) | inconclusive: 23.1 µM [cytotoxic, single point] | –
O=C(CNC(=O)c1ccc(-c2ccccc2)cc1)OCc1ccc(Cl)cc1 | inconclusive: 7.31 µM [rising, partial curve, poor fit] | –
N#Cc1ccc(N2Cc3ccccc3/C2=N/C(=O)Nc2ccc(Cl)cc2)cc1 | inconclusive: 20.6 µM [cytotoxic, single point] | –
CCn1cc(C(=O)N2CCN(c3cc(Cl)ccc3C)CC2)c(=O)c2cc(S(=O)(=O)N3CCCCC3)ccc21 | inactive | –
O=C(NCCn1cc(SCc2ccc(F)cc2)c2ccccc21)c1cccs1 | inconclusive: 25.9 µM [cytotoxic, single point] | –
CCOc1ccc(C(=O)Nc2ccc(-n3nncc3-c3ccc(OC)cc3)cc2)cc1 | inconclusive: 20.6 µM [cytotoxic, single point] | –
O=C(C1=C[C@@H](C2CC2)C[C@@H](OCCCCO)O1)N1CCOCC1 | inconclusive: 18.4 µM [rising, partial curve, poor fit] | –
COc1ccc(/C=N/NC(=O)CCCOc2ccc(Cl)cc2Cl)cc1[N+](=O)[O-] | inconclusive: 29.1 µM [cytotoxic, single point] | –
O=C(OCn1ncc(Cl)c(Cl)c1=O)c1cccc(C(F)(F)F)c1 | active: 4.61 µM | –
S=C(Nc1cccc(Cl)c1Cl)NC1CCN(Cc2ccccc2)CC1 | inconclusive: 10.3 µM [cytotoxic, partial curve, poor fit] | –
COc1ccc(-c2onc3ccc(C(=O)/C=C/N(C)C)cc23)cc1 | inconclusive: 23.1 µM [cytotoxic, single point] | –
Cc1nc(NC(=O)COC(=O)C2CC3CCCC(C2)C3=O)c(Cl)cc1Cl (configuration not stated) | inactive | –
COC(=O)C1=CN(c2ccc(Oc3ccccc3)cc2)C(N)=C(C#N)C1c1cccc(OC)c1OC (configuration not stated) | inconclusive: 29.1 µM [cytotoxic, single point] | –
Cc1c(CCO)sc[n+]1CC(=O)c1ccc2ccccc2c1 | – | inconclusive: 48.2%
O=C(Nc1nc(-c2nc3ccccc3s2)cs1)c1ccco1 | inactive | –
CCc1sc(-c2cc3ccc(O)cc3oc2=O)nc1-c1ccc(C)cc1 | inactive | –

SMILES | Potency | activity change, negative = cytotoxic
CCOC(=O)c1c(C)[nH]c(C(=O)N/N=C\c2ccccc2O)c1C | inconclusive: 3.66 µM [cytotoxic, partial curve, poor fit] | –
Cc1ccsc1/C=N\Nc1cn[nH]c(=O)c1Cl | active: 4.61 µM | –
Cc1ccccc1C(=O)N1CCN(c2ccc(NC(=O)c3ccc([N+](=O)[O-])o3)cc2)CC1 | active: 5.8 µM | –
O=C(N[C@@H](Cc1ccccc1)C(=O)N1CCN(S(=O)(=O)c2ccc(F)cc2)CC1)c1ccco1 | inactive | –
COc1ccc([C@H]2CC(=O)C=C(c3ccc4ncccc4c3)C2)cc1OC | inactive | –
COc1ccc(-c2ccc3c(c2)c(Sc2ccccc2)c(-c2ccccc2)n3C)cn1 | inconclusive: 18.4 µM [cytotoxic, single point] | –
CC(C)(C)c1ccc(/C=C2\Oc3cc(O)ccc3C2=O)cc1 | active: 16.4 µM | –
O=C(NCCc1ccccc1)c1ccc(Cn2c(SCc3ccccc3)nc3cccnc32)cc1 | inactive | –
CN(CCc1cn[nH]c1)Cc1nc(C(c2ccccc2)c2ccccc2)no1 | inconclusive: 8.2 µM [rising, partial curve, poor fit] | –
O=c1[nH]c2ccccc2c(O)c1-c1ccccc1[N+](=O)[O-] | inactive | –
C(=N\Nc1nc2ccccc2[nH]1)/c1ccc2ncccc2c1 | active: 1.03 µM | –
Cc1cc(C(=O)COC(=O)C2=COCCO2)c(C)n1-c1ccccc1 | inactive | –
On1onc2c3cc(-c4ccccc4)nc3ccc21 | inactive | –
O=C1[C@@H](Oc2ccccc2)[C@@H](c2cccnc2)N1c1ccccc1 | inactive | –
CCC(C(=O)Nc1ccc(C)c(Cl)c1)n1c(=O)c(-c2ccccc2NC(C)=O)nc2ccccc21 (configuration not stated) | inactive | –
CC1(C)C(=O)OC(c2cccc([N+](=O)[O-])c2)C2(CCCCC2)C1=O (configuration not stated) | inconclusive: 0.58 µM [cytotoxic, partial curve, poor fit] | –
CCOc1ccc(C(=O)NC(C)CCc2ccccc2)cc1 (configuration not stated) | inactive | –
CCOC(=O)c1sc(=S)n(C)c1NC(=O)c1ccc(C(C)(C)C)cc1 | inconclusive: 29.1 µM [cytotoxic, single point] | –
Cc1nc2nc(C(F)(F)F)[nH]c2nc1C | inactive | –
O=C1Nc2ccc(Br)cc2/C1=C/C1CC=CCC1 (configuration not stated) | inconclusive: 29.1 µM [cytotoxic, single point] | –
Cc1cc(C)cc(OCC(=O)Nc2ccc(N3CCOCC3)cc2N2CCOCC2)c1 | inconclusive: 32.6 µM [cytotoxic, single point] | –
O=[N+]([O-])c1cc(S(=O)(=O)Nc2ccccc2)ccc1Nc1ccccc1 | inconclusive: 18.4 µM [cytotoxic, single point] | –
CCCCNC(=O)C1(C)CCCCN1Cc1ccc(OCc2ccccc2)cc1 (configuration not stated) | inconclusive: 29.1 µM [cytotoxic, single point] | –

Record cards, from the list above.
C(=N\Nc1nc2ccccc2[nH]1)/c1ccc2ncccc2c1 as listed: Potency: active: 1.03 µM
COc1ccc(-c2ccc3c(c2)c(Sc2ccccc2)c(-c2ccccc2)n3C)cn1 as listed: Potency: inconclusive: 18.4 µM [cytotoxic, single point]
